# Laboratory results: PubChem BioAssay AID1688 (National Center for Advancing Translational Sciences (NCATS), 2009)
# Where “and” joins values, the source holds several entries; their conditions need not be identical. Identical values can stand only once. In all, about 220,000 compounds went through this assay and about 2,400 (1.1%) were called active. The inconclusive results got no clear call from the source; some entries with a clear call stand among them for comparison. Calls come from the whole dose curve; as a rule, active = well fitted inhibition curve with a large enough effect; inconclusive = small, poorly fitted or top-dose-only effect, or effect the other way; inactive = no such curve, though single readings can be large or run the other way. Where the call is inconclusive, the potency comes from a doubtful curve fit.
# Experiment: qHTS Multiplex Assay to Identify Dual Action Probes in a Cell Model of Huntington: Aggregate Formation (GFP); note: nearly all actives have a fitted effect of over 60% in size
# Details: PC12 HttQ103-GFP aggregates, Acumen cytometry, 40 h; activity change, negative = inhibition: at 46.1 µM (top of the series)
# Method in brief: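 Inducible Q103 Huntingtin exon 1–GFP PC12 line, 1500 cells/well in phenol red free DMEM with 5% equine and 5% calf serum. Tebufenozide 100 nM induced expression; compounds titrated; aggregates quantified by cytometry.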
# % is set by controls: 0 for no effect and ±100 for the full control effect; potency is the fitted concentration of half-maximal effect.
SMILES,Potency,"activity change, negative = inhibition"
N#CSCC(=O)N1c2ccccc2CCc2ccccc21,"inconclusive: 35.5 µM [inhibitor, single point]",–
CN(C(=O)CNC(=O)OCc1ccccc1)c1ccc(Br)cc1C(=O)c1ccccc1Cl,"inconclusive: 14.1 µM [inhibitor, partial curve]",–
CN(C)[C@@H]1C(=O)C(C(N)=O)=C(O)[C@@]2(O)C(=O)C3=C(O)c4c(O)cccc4[C@@](C)(O)[C@H]3[C@H](O)[C@@H]12,inactive,–
CN1CCN(c2ccc(N)cc2)CC1,–,inactive: 11.5%
COc1ccc(-c2nn(-c3ccccc3)cc2C(=O)N2c3ccc(C)cc3C3CN(C)CCC32)cc1 (stereo unspecified),"inconclusive: 25.1 µM [inhibitor, single point]",–
CCc1ccc(CNn2cnnc2SCC(=O)NC(C)(C)C)cc1,"inconclusive: 3.55 µM [inhibitor, single point]",–
COc1cc(OC)c(OC)cc1CNC(C)C(O)c1ccccc1 (stereo unspecified),–,inactive: 16.1%
CC(C)(C)c1cc(O)ccc1O,"inactive and inconclusive: 25.1 µM [inhibitor, partial curve, poor fit]",–
c1ccc2c(CNC3CCCCCC3)c[nH]c2c1,"inconclusive: 25.1 µM [inhibitor, single point]",–
Cc1cccc(N2C(=O)NC(=O)/C(=C\c3ccc4c(c3)CCCN4Cc3ccccc3)C2=O)c1,"inconclusive: 10 µM [activator, single point]",–
COC(=O)C1CN(C#N)N(c2ccc(Cl)cc2)C12c1ccccc1-c1ccccc12 (stereo unspecified),"inconclusive: 5.62 µM [inhibitor, single point]",–
CN1CCC(O)(c2ccc(Cl)cc2)C(C(=O)c2ccc(Cl)cc2)C1 (stereo unspecified),–,inactive: 7.59% [at 9.22 µM]
O=C(C1CCN(c2nc3ccc(Br)cc3s2)CC1)N1CCC2(CC1)OCCO2,"inconclusive: 12.6 µM [inhibitor, single point]",–
CCCCCCOc1ccc(CN2CCN(CCO)CC2)cc1,–,inactive: 0.382%
N[C@@H](Cc1c[nH]c2ccccc12)c1nnc(SCc2ccc(Cl)cc2)o1,"inconclusive: 14.1 µM [inhibitor, single point]",–
COCCNC(=O)c1c(NC(=O)c2ccc(Br)o2)n(Cc2ccccc2)c2nc3ccccc3nc12,"inconclusive: 22.4 µM [inhibitor, partial curve]",–
CCOP(=O)(Cc1cc(C(=O)CC)c(C)o1)OCC,active: 0.01 µM,–
CCN(CC)c1ccc(C=C2C(=O)N(C)C(=S)N(C)C2=O)o1,–,inactive: 1.41%
O=C1/C(=C/c2cccnc2)SC(=NCc2ccccc2)N1Cc1ccccc1,"inconclusive: 10 µM [inhibitor, partial curve]",–
CCOC(=O)C1CCN(C=C2C(=O)N(C)C(=S)N(C)C2=O)CC1,"inconclusive: 10 µM [inhibitor, partial curve]",–
O=C(Nc1ccc(F)cc1F)c1cccn(Cc2ccccc2)c1=O,"inconclusive: 35.5 µM [inhibitor, single point]",–
CCCCCCCCCCCCCCCC[n+]1ccccc1,active: 15.8 µM,–
Cc1cc(OC(=O)c2cccs2)c2c3c(c(=O)oc2c1)CCCC3,active: 25.1 µM,–
Cc1nonc1OCCNCCNc1ccc([N+](=O)[O-])c2cccnc12,"inconclusive: 22.4 µM [inhibitor, single point]",–

SMILES,Potency,"activity change, negative = inhibition"
CNCCC(Oc1ccc(C(F)(F)F)cc1)c1ccccc1 (stereo unspecified),"inconclusive: 35.5 µM [inhibitor, single point]",–
CCc1ccc(N2C(=O)NC(=O)/C(=C/c3cccn3CCOc3ccc(C(C)CC)cc3)C2=O)cc1 (stereo unspecified),"inconclusive: 35.5 µM [activator, partial curve]",–
O=Cc1cn(Cc2ccccc2F)c2ccccc12,"inconclusive: 8.91 µM [inhibitor, single point]",–
N=c1c2c(n(Cc3ccc(Cl)cc3Cl)c3c1CCC3)CCCC2,active: 6.31 µM,–
Cc1c(C(=O)N2CCC3(CC2)OCCO3)oc2ccc(S(=O)(=O)N3CCOCC3)cc12,–,inactive: -16.2%
O=C1NC(=S)N(c2ccccc2F)C(=O)/C1=C\c1cccs1,"inconclusive: 35.5 µM [inhibitor, single point]",–
CO[C@@H](COC(N)=O)C1=C(N2CC2)C(=O)C(C)=C(N2CC2)C1=O,active: 5.01 µM,–
CN(C)C(=O)Oc1ccc(Cl)c2ccccc12,–,inactive: -0.846%
COc1cccc(OC)c1C1=NCC(=O)Nc2c1oc1ccc(Br)cc21,"inconclusive: 6.31 µM [activator, full curve]",–
COc1cccc(C2=NOC(C(=O)N3CCC4(CC3)OCCO4)C2)c1 (stereo unspecified),"inconclusive: 35.5 µM [inhibitor, single point]",–
CCN(CC)P(=O)(Nc1ccc([N+](=O)[O-])cc1)c1c(C)nn(CCC#N)c1NC(=O)c1ccc(Cl)cc1Cl (stereo unspecified),"inconclusive: 22.4 µM [inhibitor, single point]",–
C[C@]12C/C(=C/O)C(=O)C[C@@H]1CC[C@@H]1[C@@H]2CC[C@@]2(C)[C@H]1CC[C@]2(C)O,–,inactive: 10.2%
O=Cc1c(C(=O)O)n(Cc2ccccc2Cl)c2ccccc12,–,inactive: -14.2%
Cc1cc(/C=C2\C(=O)NC(=O)N(c3ccc(Cl)cc3)C2=O)c(C)n1-c1sc2c(c1C#N)CCCC2,"inconclusive: 11.2 µM [activator, partial curve]",–
Cc1nn(-c2ccccc2)c(Cl)c1C1C(C#N)=C(N)Oc2c1c(=O)oc1ccccc21 (stereo unspecified),"inconclusive: 12.6 µM [activator, single point]",–
CCOc1ccc(-n2c(O)c(N=Nc3ccc([N+](=O)[O-])cc3)c(=O)[nH]c2=O)cc1,"inconclusive: 10 µM [activator, partial curve]",–
O=C(COc1ccc(Br)cc1)N1CCN(Cc2c[nH]c3ccccc23)CC1,–,inactive: 13% [at 9.22 µM]
CCOc1ccc(N2C(=O)NC(=O)/C(=C\c3cc(OC)c(OC)cc3[N+](=O)[O-])C2=O)cc1,–,inactive: 6.57%
C[N+]1=C(/C=C/Nc2ccccc2)C(C)(C)c2ccccc21,"inconclusive: 5.62 µM [activator, single point]",–
CC(C)c1oc(=O)cc2c1[C@@H](O)[C@H]1OC(=O)[C@@]3(C)CC[C@@H](O)[C@@]2(C)C13 (stereo partly specified),"inconclusive: 35.5 µM [inhibitor, single point]",–
O=C(c1cc(C(=O)NCc2ccccc2)c(=O)n(Cc2ccccc2)c1)c1cc(Cl)ccc1O,"inconclusive: 12.6 µM [inhibitor, single point]",–
O=C(c1c[nH]cc1-c1ccccc1)c1cccc2ccccc12,"inconclusive: 25.1 µM [inhibitor, partial curve, poor fit]",–
O=C1/C(=C/c2ccc3c(c2)OCO3)N2CCC1CC2,–,inactive: -18.7%
CCC(=O)c1cc(F)c(N2CCN(CC)CC2)cc1C,–,inactive: -0.985% [at 9.22 µM]

SMILES,Potency,"activity change, negative = inhibition"
CCCCCCCCCCCCCCCC[N+](C)(C)C,"inconclusive: 31.6 µM [inhibitor, partial curve, poor fit]",–
N#CC(C#N)=Cc1cc(O)c(O)c(O)c1,–,inactive: -16.5%
CN1CCC2(CC1)NC(=O)C1=C(CN(C)CC1)N2,–,inactive: -4.09%
O=C1NCCN2CCCC12 (stereo unspecified),–,inactive: 3.2%
O=C1C2CC=CCC2C(=O)N1SC(Cl)(Cl)Cl (stereo unspecified),active: 14.1 µM,–
Cn1c(=O)n(CC(=O)N2CCC3(CC2)OCCO3)c(=O)c2ccccc21,–,inactive: -0.953%
COc1ccc(-c2cc(-c3ccccc3)[n+](C)c(-c3ccccc3)c2)cc1,active: 7.08 µM,–
COc1cc(-n2c(=S)[nH]c3ccc(C)cc3c2=O)c(Cl)cc1Cl,"inconclusive: 25.1 µM [inhibitor, single point]",–
OCc1cnc[nH]1,–,inactive: -8.1%
CN(C)P(=O)(CCl)Nc1ccccc1 (stereo unspecified),"inconclusive: 35.5 µM [inhibitor, single point]",–
OC1(c2ccc(F)cc2)CC2CCC(C1)N2Cc1nnnn1C1CCCCC1 (stereo unspecified),–,inactive: -0.959%
COc1ccc(Cn2c(=O)oc3ccc(C)cc32)cc1OC,"inconclusive: 14.1 µM [inhibitor, single point]",–
CN1CCC(N(C)c2ncnc3ccc(Br)cc23)CC1,"inconclusive: 12.6 µM [inhibitor, partial curve]",–
Cc1occc1C(=O)Nc1nnc(C(F)(F)F)s1,active: 35.5 µM,–
Cn1c(O)c(/C=N/NC(=O)c2ccncc2)c(=O)n(C)c1=S,–,inactive: 14.8% [at 9.22 µM]
CC(=NCc1ccc(F)cc1)c1c(O)n(C)c(=O)n(C)c1=O,"inconclusive: 20 µM [inhibitor, single point]",–
Cc1ccc(C(C)C)c(OCC(=O)N2CCN(Cc3nc4cc([N+](=O)[O-])ccc4n3C)CC2)c1,"inconclusive: 35.5 µM [inhibitor, single point]",–
O=C(c1cc(-c2ccc(Cl)cc2)n(-c2ccc(Cl)cc2Cl)n1)N1CCOCC1,"inconclusive: 28.2 µM [inhibitor, single point]",–
CSCCC(=O)Nc1cc(S(=O)(=O)N2CCOCC2)ccc1N1CCN(C)CC1,"inconclusive: 0.316 µM [activator, full curve, poor fit]",–
COC(=O)c1ccc(NC(=O)CSc2nc3ccc(N4C(=O)C5C6C=CC(C6)C5C4=O)cc3s2)cc1 (stereo unspecified),"inconclusive: 15.8 µM [inhibitor, single point]",–
Nn1c(COc2ccc(Cl)cc2)n[nH]c1=S,"inconclusive: 3.55 µM [activator, partial curve, poor fit]",–
c1ccc2c(CN3CCCCCCC3)c[nH]c2c1,active: 12.6 µM,–
FC(F)(F)c1ccc2c(c1)nnn2C1CCN(Cc2nnnn2Cc2ccccc2)CC1,"inconclusive: 15.8 µM [inhibitor, single point]",–
